In publication PMC9655037, “Alternation of Organ-Specific Exposure in LPS-Induced Pneumonia Mice after the Inhalation of Tetrandrine Is Governed by Metabolizing Enzyme Suppression and Lysosomal Trapping” (International Journal of Molecular Sciences, 2022):

System: A549, HepG2, RAW264.7, and C8-D1A cells
Experiment: Cellular uptake of TET with or without the lysosomal inhibitor monensin
Assay type: cell-based
Conditions: 25 µM monensin

COc1ccc2cc1Oc1ccc(cc1)C[C@H]1c3cc(c(OC)cc3CCN1C)Oc1c(OC)c(OC)cc3c1[C@H](C2)N(C)CC3 [TET, Tetrandrine]
inhibition of uptake in cells with monensin present in the LPS-treated incubation (2 μM TET): ~ 40%
effect of monensin on intracellular uptake of TET (four cell lines): significantly inhibited by monensin
